Measured data: PubChem BioAssay AID504774 (Drosophila RNAi Screening Center, 2011)
The screen tested about 23,000 reagents; shown is an unselected part of those that have a named target and a result. 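Values are quantile-normalised luminescence on an arbitrary scale; higher means more cells surviving MMS.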 The numbers tell different reagents against one gene apart. Names joined by + are all predicted targets of the reagent.

Aim: 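Genes required for cells to withstand methyl methanesulphonate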 (primary screen)
System: Drosophila Kc167 cells
Reagent: long dsRNA against Drosophila genes, about 0.25 µg dsRNA per well
Time to read-out: about 6 days: 3 days knock-down, then 3 days with or without MMS
Conditions: methyl methanesulphonate 0.004% (w/v) for 3 days after knock-down
Read-out: 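ATP-dependent luminescence as a measure of live cells in MMS-exposed wells, quantile normalised within each plate, with replicate values also given as a mean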
Direction: mean viability with MMS and viability with MMS: higher = more surviving cells after MMS

target gene | dsRNA no. | mean viability with MMS | viability with MMS, replicate 1 | viability with MMS, replicate 2
PpV (GeneID 31582) | 1 | 3.32e6 | 3.82e6 | 3.70e6
PpV (GeneID 31582) | 2 | 3.47e6 | 3.97e6 | 3.93e6
CG10616 (GeneID 39420) | 1 | 3.51e6 | 4.00e6 | 3.95e6
mGluR (GeneID 43838) | 1 | 3.48e6 | 3.88e6 | 4.02e6
NTPase (GeneID 33495) | 1 | 3.72e6 | 4.21e6 | 4.28e6
Cpr65Ea (GeneID 38773) | 1 | 3.51e6 | 3.94e6 | 4.03e6
Vha16-1 (GeneID 44307) | 1 | 3.46e6 | 4.00e6 | 3.81e6
CG4955 (GeneID 32692) | 1 | 3.67e6 | 4.26e6 | 4.11e6
speck (GeneID 37867) | 1 | 3.49e6 | 4.01e6 | 3.89e6
CG43345 (GeneID 35387) | 1 | 3.82e6 | 4.49e6 | 4.15e6
CG15186 (GeneID 40797) | 1 | 3.52e6 | 4.02e6 | 3.97e6
CG3108 (GeneID 31506) | 1 | 3.60e6 | 4.18e6 | 4.11e6
GstE6 (GeneID 37111) | 1 | 3.70e6 | 4.18e6 | 4.17e6
sbr (GeneID 43944) | 1 | 3.34e6 | 3.77e6 | 3.82e6
sbr (GeneID 43944) | 2 | 2.93e6 | 3.64e6 | 3.65e6
CG13026 (GeneID 39868) | 1 | 3.51e6 | 3.96e6 | 3.99e6
ksr (GeneID 40660) | 1 | 3.40e6 | 3.89e6 | 3.84e6
Cyp12d1-d + Cyp12d1-p | 1 | 3.47e6 | 3.96e6 | 3.95e6
CG45067 (GeneID 38371) | 1 | 3.54e6 | 3.95e6 | 4.08e6
CG13186 (GeneID 36294) | 1 | 3.48e6 | 3.98e6 | 3.86e6
CG2812 (GeneID 37801) | 1 | 3.59e6 | 4.09e6 | 4.05e6
egl (GeneID 37757) | 1 | 3.62e6 | 4.17e6 | 4.04e6
scaf (GeneID 35505) | 1 | 3.37e6 | 3.84e6 | 3.78e6
MYPT-75D (GeneID 40032) | 1 | 3.71e6 | 4.14e6 | 4.21e6
Ir68a (GeneID 39269) | 1 | 3.56e6 | 4.04e6 | 4.03e6
srl (GeneID 40562) | 1 | 3.58e6 | 4.02e6 | 4.09e6
CR30029 (GeneID 5740197) | 1 | 3.71e6 | 3.84e6 | 4.58e6
CG18659 (GeneID 35929) | 1 | 3.57e6 | 4.06e6 | 4.02e6
